This sample is rich in variants without activity.
Assays:
biotinyl-Trp-oxazolone = assay: self-aminoacylation, catalytic enhancement (BWO) (fold over background); higher = more active; k-Seq, kA / k0A0; sequences stand for … in GGGAAUGGAUCCACAUCUACGAAUUC…UUCACUGCAGACUUGACGAAGCUG
How it was run: (§1)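 The uncatalyzed rate is the low-activity peak of a bimodal Gaussian fit, and catalytic enhancement is median kA divided by it. The kA values came from pseudo-first-order fits, with 1000 bootstraps, of per-sequence fraction reacted measured by streptavidin capture, triplicate qPCR and Illumina sequencing. Mutagenized RNA pools with a 21-nt variable region (0.43 μM) were reacted with each biotinyl-aminoacyl-oxazolone at 2–1250 μM in 50 μL HEPES/NaCl/KCl/MgCl2/CaCl2 buffer with 5% acetonitrile, pH 6.9–7.0, for 90 minutes at room temperature.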

biotinyl-Leu-oxazolone = assay: self-aminoacylation, catalytic enhancement (BLO) (fold over background); higher = more active; k-Seq, kA / k0A0; sequences stand for … in GGGAAUGGAUCCACAUCUACGAAUUC…UUCACUGCAGACUUGACGAAGCUG
How it was run: as §1

biotinyl-Val-oxazolone = assay: self-aminoacylation, catalytic enhancement (BVO) (fold over background); higher = more active; k-Seq, kA / k0A0; sequences stand for … in GGGAAUGGAUCCACAUCUACGAAUUC…UUCACUGCAGACUUGACGAAGCUG
How it was run: as §1

biotinyl-Ile-oxazolone = assay: self-aminoacylation, catalytic enhancement (BIO) (fold over background); higher = more active; k-Seq, kA / k0A0; sequences stand for … in GGGAAUGGAUCCACAUCUACGAAUUC…UUCACUGCAGACUUGACGAAGCUG
How it was run: as §1

biotinyl-Met-oxazolone = assay: self-aminoacylation, catalytic enhancement (BMO) (fold over background); higher = more active; k-Seq, kA / k0A0; sequences stand for … in GGGAAUGGAUCCACAUCUACGAAUUC…UUCACUGCAGACUUGACGAAGCUG
How it was run: as §1

Sequence | self-aminoacylation (biotinyl-Trp-oxazolone) | self-aminoacylation (biotinyl-Leu-oxazolone) | self-aminoacylation (biotinyl-Val-oxazolone) | self-aminoacylation (biotinyl-Ile-oxazolone) | self-aminoacylation (biotinyl-Met-oxazolone)
AAGAUUGCUAAUAGUCACAAG [Fam3.1 aminoacylation ribozyme variant] | 1.69 | 1.02 | 1.12 | 1.17 | 1.31
AAGCUUGCUAAUAGUUGCAAG [Fam3.1 aminoacylation ribozyme variant] | 1.72 | 1.71 | 1.21 | 1.65 | 1.16
AAGGUUGCUACUAGUCGCAAG [Fam3.1 aminoacylation ribozyme variant] | 0.87 | 1.46 | 1.26 | 1.53 | 1.08
AAGUCUGCUGAUAGUCGCAAG [Fam3.1 aminoacylation ribozyme variant] | 0.941 | 1.38 | 0.949 | 0.758 | 0.577
AAGUGUGCUCAUAGUCGCAAG [Fam3.1 aminoacylation ribozyme variant] | 2.34 | 1.51 | 1.53 | 1.54 | 1.59
AAGUUCGCUAAUAGUCGAAAG [Fam3.1 aminoacylation ribozyme variant] | 1.98 | 1.3 | 1.28 | 1.49 | 1.28
AAGUUCGCUGAUAGUCGCAAG [Fam3.1 aminoacylation ribozyme variant] | 1.72 | 1.61 | 1.69 | 1.51 | 1.38
AAGUUUAAUAAUAGUCGCAAG [Fam3.1 aminoacylation ribozyme variant] | 1.81 | 1.67 | 1.43 | 1.44 | 1.58
AAGUUUACUAAUAGUCGCACG [Fam3.1 aminoacylation ribozyme variant] | 1.71 | 1.04 | 1.18 | 1.3 | 0.986
AAGUUUACUAAUAGUUGCAAG [Fam3.1 aminoacylation ribozyme variant] | 1.9 | 1.65 | 1.29 | 1.38 | 1.26
AAGUUUCCUAAUAGUUGCAAG [Fam3.1 aminoacylation ribozyme variant] | 1.35 | 1.43 | 1.4 | 1.66 | 1.58
AAGUUUCCUAAUGGUCGCAAG [Fam3.1 aminoacylation ribozyme variant] | 1.3 | 1.77 | 1.31 | 1.24 | 1.41
AAGUUUCCUACUAGUCGCAAG [Fam3.1 aminoacylation ribozyme variant] | 1.49 | 1.64 | 1.57 | 1.63 | 1.93
AAGUUUCCUAGUAGUCGCAAG [Fam3.1 aminoacylation ribozyme variant] | 0.668 | 1.06 | 1.44 | 1.12 | 1.2
AAGUUUGAUAAUAGUCGCAAU [Fam3.1 aminoacylation ribozyme variant] | 1.18 | 1.02 | 1.07 | 1.19 | 1.03
AAGUUUGCGAAUAGUGGCAAG [Fam3.1 aminoacylation ribozyme variant] | 0.921 | 0.622 | 0.622 | 0.769 | 0.882
AAGUUUGCUAACAGUCGCAGG [Fam3.1 aminoacylation ribozyme variant] | 1.41 | 1.2 | 1.28 | 1.21 | 1.03
AAGUUUGCUAAUAGCCGCAAU [Fam3.1 aminoacylation ribozyme variant] | 1.69 | 1.92 | 1.41 | 1.32 | 1.45
AAGUUUGCUAAUAGUAACAAG [Fam3.1 aminoacylation ribozyme variant] | 1.41 | 1.12 | 1.1 | 1.19 | 1.52

Sequence | self-aminoacylation (biotinyl-Trp-oxazolone) | self-aminoacylation (biotinyl-Leu-oxazolone) | self-aminoacylation (biotinyl-Val-oxazolone) | self-aminoacylation (biotinyl-Ile-oxazolone) | self-aminoacylation (biotinyl-Met-oxazolone)
AAGUUUGCUCAUCGUCGCAAG [Fam3.1 aminoacylation ribozyme variant] | 1.73 | 1 | 0.944 | 1.06 | 1.07
AAGUUUGUUAAAAGUCGCAAG [Fam3.1 aminoacylation ribozyme variant] | 1.78 | 1.48 | 1.31 | 1.76 | 1.32
AAGUUUUCUAAUAGUCGCUAG [Fam3.1 aminoacylation ribozyme variant] | 1.61 | 1.39 | 1.45 | 1.44 | 1.41
AAGUUUUCUCAUAGUCGCAAG [Fam3.1 aminoacylation ribozyme variant] | 2 | 1.6 | 1.35 | 1.59 | 1.43
AAUUUUGCUAAGAGUCGCAAG [Fam3.1 aminoacylation ribozyme variant] | 1.52 | 1.92 | 1.58 | 1.91 | 1.97
ACACACUUCAAGCAAUUGGUC [Fam1B.1 aminoacylation ribozyme variant] | 1.29 | 0.945 | 1.17 | 1.09 | 1.01
ACUACCCUGGUCAUCUAGUGA [Fam2.1 aminoacylation ribozyme variant] | 7.62 | 7.72 | 3.97 | 3.86 | 7.5
ACUCACCUAGGUCAACGGGUG [Fam2.2 aminoacylation ribozyme variant] | 3.14 | 2.29 | 2.22 | 1.94 | 2.67
ACUCACCUAGGUCAUAGGGUG [Fam2.2 aminoacylation ribozyme variant] | 1.58 | 1.39 | 1.36 | 1.31 | 1.57
AGGUCUGCUAAUAGUCGCAAG [Fam3.1 aminoacylation ribozyme variant] | 9.95 | 1.08 | 1.17 | 1.36 | 2.08
AGGUUUGUUAAUAGUCGCAAG [Fam3.1 aminoacylation ribozyme variant] | 1.91 | 1.81 | 1.87 | 1.86 | 1.86
AUAACCCUGGUCGUCGAGUGA [Fam2.1 aminoacylation ribozyme variant] | 1.28 | 1.3 | 0.939 | 1.01 | 1.01
AUCUUUGCUAAUAGUCGCAAG [Fam3.1 aminoacylation ribozyme variant] | 1.96 | 1.61 | 1.4 | 1.83 | 1.74
AUGUUUGCUCAUAGUCGCAAG [Fam3.1 aminoacylation ribozyme variant] | 1.73 | 1.32 | 1.4 | 1.5 | 1.48
AUUACCCUGAUCAUCGAGGGA [Fam2.1 aminoacylation ribozyme variant] | 2.33 | 1.87 | 1.21 | 1.09 | 1.02
AUUACCCUGGCCAUCGAAUGA [Fam2.1 aminoacylation ribozyme variant] | 0.331 | 1.4 | 1.31 | 1 | 0.928
AUUACCCUGGUCAACGUGUGA [Fam2.1 aminoacylation ribozyme variant] | 1.29 | 1.37 | 1.35 | 1.12 | 1.33
AUUACCCUGGUCAUCGUGUGU [Fam2.1 aminoacylation ribozyme variant] | 0.854 | 1.22 | 1.17 | 0.802 | 1.2
AUUACCCUGGUCAUGGAGUGU [Fam2.1 aminoacylation ribozyme variant] | 2.57 | 2.73 | 1.98 | 1.72 | 2.46

Sequence | self-aminoacylation (biotinyl-Trp-oxazolone) | self-aminoacylation (biotinyl-Leu-oxazolone) | self-aminoacylation (biotinyl-Val-oxazolone) | self-aminoacylation (biotinyl-Ile-oxazolone) | self-aminoacylation (biotinyl-Met-oxazolone)
AUUACCCUGGUCGUCGAGGGA [Fam2.1 aminoacylation ribozyme variant] | 1.51 | 0.979 | 1.64 | 1.26 | 1.03
AUUACCCUGGUCGUCGUGUGA [Fam2.1 aminoacylation ribozyme variant] | 1.87 | 1.73 | 1.18 | 1.02 | 1.54
AUUACCCUGGUUAUCGAGGGA [Fam2.1 aminoacylation ribozyme variant] | 1.79 | 0.955 | 1.16 | 1.55 | 1.4
AUUACCCUGUUCAUCAAGUGA [Fam2.1 aminoacylation ribozyme variant] | 1.49 | 1.5 | 1.34 | 1.4 | 1.65
AUUACCGUGGCCAUCGAGUGA [Fam2.1 aminoacylation ribozyme variant] | 8.11 | 5.84 | 3.89 | 3.2 | 4.71
AUUAGCCUGGUCAUCGAGUGC [Fam2.1 aminoacylation ribozyme variant] | 1.19 | 1.76 | 1.33 | 1.23 | 1.54
AUUAGCUUGGUCAUCGAGUGA [Fam2.1 aminoacylation ribozyme variant] | 1.39 | 1.97 | 1.61 | 1.99 | 1.76
AUUCACCCAGGUCGUCGGGUG [Fam2.2 aminoacylation ribozyme variant] | 1.93 | 2.84 | 1.8 | 1.9 | 1.91
AUUCACCGAGGCCAUCGGGUG [Fam2.2 aminoacylation ribozyme variant] | 4.78 | 6.39 | 4.36 | 3.16 | 5.31
AUUCACCUAGCUCGUCGGGUG [Fam2.2 aminoacylation ribozyme variant] | 1.18 | 1.19 | 1.53 | 1.21 | 1.37
AUUCACCUAGGUCAUCCGGUC [Fam2.2 aminoacylation ribozyme variant] | 1.28 | 1.71 | 1.35 | 1.25 | 1.33
AUUCACCUAGGUCGUCGGGUU [Fam2.2 aminoacylation ribozyme variant] | 1.31 | 1.69 | 1.71 | 1.57 | 1.53
AUUCACCUAGGUCUUCGGGAG [Fam2.2 aminoacylation ribozyme variant] | 1.11 | 1.86 | 1.76 | 1.59 | 1.17
AUUCACCUAGGUCUUCGUGUG [Fam2.2 aminoacylation ribozyme variant] | 0.898 | 1.43 | 1.1 | 1.05 | 1.21
AUUCACCUCGGUCAACGGGUG [Fam2.2 aminoacylation ribozyme variant] | 3.36 | 5.39 | 2.82 | 2.44 | 3.98
AUUGACCUAGGUCAUCGGGUC [Fam2.2 aminoacylation ribozyme variant] | 1.55 | 1.39 | 1.29 | 1.3 | 1.52
AUUGACCUAUGUCAUCGGGUG [Fam2.2 aminoacylation ribozyme variant] | 5.17 | 7.74 | 3.64 | 3.81 | 5.68
AUUGCCGUGGUCAUCGAGUGA [Fam2.1 aminoacylation ribozyme variant] | 5.71 | 6.18 | 3.45 | 2.89 | 4.92
AUUUACCAAGGUCAUCGGGUG [Fam2.2 aminoacylation ribozyme variant] | 7.11 | 9.69 | 4.6 | 4.61 | 7.36
